Our source for the binding values is paper PMC6316800.

Sequences of proteins named here, by UniProt entry; tags and fusion partners are left off. A change or cut given only in a name is not applied to a line headed by its entry.
UniProt O00571: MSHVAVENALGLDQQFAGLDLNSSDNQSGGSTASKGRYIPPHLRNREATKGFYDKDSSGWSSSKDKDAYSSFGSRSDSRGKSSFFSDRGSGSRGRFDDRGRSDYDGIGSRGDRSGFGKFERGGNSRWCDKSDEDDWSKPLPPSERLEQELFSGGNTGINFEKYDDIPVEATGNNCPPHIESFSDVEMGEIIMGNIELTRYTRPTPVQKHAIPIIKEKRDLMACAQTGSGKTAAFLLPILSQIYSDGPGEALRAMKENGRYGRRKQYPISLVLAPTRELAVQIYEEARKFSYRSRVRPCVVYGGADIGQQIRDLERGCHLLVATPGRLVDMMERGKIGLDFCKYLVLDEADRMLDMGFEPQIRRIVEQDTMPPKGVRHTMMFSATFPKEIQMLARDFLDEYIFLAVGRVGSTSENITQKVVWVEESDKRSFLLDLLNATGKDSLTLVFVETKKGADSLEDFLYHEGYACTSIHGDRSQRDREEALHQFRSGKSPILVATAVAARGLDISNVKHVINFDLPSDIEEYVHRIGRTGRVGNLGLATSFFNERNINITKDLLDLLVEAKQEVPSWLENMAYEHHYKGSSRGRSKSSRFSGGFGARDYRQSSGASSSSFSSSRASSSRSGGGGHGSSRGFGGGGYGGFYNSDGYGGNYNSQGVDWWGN
UniProt O75367: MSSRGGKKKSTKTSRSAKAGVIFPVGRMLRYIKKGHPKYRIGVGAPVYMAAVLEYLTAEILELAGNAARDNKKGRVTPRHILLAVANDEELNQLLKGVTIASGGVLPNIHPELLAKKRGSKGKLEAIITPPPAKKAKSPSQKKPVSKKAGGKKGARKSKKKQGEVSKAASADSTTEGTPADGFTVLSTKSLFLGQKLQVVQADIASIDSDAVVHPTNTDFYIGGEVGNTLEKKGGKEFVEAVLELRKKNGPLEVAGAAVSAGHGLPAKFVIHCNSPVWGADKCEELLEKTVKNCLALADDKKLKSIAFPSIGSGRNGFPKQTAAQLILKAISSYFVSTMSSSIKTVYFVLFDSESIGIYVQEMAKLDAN
UniProt P54652: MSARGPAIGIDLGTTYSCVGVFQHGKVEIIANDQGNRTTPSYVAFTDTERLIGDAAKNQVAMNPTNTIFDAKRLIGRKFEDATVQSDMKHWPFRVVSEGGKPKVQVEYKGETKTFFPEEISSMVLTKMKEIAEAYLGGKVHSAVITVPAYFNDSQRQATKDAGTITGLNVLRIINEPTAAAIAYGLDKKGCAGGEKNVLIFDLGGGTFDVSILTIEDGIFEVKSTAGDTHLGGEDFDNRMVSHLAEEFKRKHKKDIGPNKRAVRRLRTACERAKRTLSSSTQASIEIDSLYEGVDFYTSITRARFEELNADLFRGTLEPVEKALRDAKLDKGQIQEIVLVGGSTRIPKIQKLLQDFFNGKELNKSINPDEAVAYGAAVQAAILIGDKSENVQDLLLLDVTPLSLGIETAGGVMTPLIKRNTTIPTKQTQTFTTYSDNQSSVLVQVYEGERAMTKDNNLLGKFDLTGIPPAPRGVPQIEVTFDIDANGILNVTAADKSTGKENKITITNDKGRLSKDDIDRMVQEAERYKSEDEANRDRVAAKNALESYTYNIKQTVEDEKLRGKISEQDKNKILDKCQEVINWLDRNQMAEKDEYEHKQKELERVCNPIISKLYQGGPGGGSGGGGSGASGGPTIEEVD
UniProt Q99729: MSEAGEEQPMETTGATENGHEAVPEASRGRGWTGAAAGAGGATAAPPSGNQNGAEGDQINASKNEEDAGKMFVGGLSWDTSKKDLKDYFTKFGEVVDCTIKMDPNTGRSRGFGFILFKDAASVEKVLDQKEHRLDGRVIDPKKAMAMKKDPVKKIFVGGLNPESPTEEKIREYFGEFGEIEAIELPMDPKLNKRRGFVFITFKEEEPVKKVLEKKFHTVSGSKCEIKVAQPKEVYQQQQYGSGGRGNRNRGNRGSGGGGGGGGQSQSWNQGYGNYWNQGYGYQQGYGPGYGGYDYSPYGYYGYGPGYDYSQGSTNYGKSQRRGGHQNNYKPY
UniProt Q92522: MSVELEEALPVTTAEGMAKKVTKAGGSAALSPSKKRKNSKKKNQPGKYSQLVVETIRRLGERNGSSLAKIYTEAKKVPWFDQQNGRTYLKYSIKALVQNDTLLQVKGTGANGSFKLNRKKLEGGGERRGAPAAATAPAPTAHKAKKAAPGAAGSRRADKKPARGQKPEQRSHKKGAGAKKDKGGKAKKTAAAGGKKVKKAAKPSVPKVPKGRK
UniProt O00425: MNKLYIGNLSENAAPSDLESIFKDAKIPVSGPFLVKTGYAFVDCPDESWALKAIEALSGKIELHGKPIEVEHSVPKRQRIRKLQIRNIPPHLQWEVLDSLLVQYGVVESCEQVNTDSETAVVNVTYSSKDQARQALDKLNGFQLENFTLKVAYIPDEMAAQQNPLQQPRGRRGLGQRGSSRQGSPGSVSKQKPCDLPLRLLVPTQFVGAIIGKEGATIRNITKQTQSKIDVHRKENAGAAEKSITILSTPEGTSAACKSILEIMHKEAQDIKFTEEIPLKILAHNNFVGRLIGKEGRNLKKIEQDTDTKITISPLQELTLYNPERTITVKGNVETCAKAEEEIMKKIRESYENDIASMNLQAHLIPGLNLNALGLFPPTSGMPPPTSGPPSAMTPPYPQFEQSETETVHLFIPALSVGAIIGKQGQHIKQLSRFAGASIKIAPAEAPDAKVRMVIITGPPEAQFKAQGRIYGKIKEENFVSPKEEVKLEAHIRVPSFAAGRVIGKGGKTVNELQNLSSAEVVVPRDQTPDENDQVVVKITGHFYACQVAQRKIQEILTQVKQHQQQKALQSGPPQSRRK
UniProt Q9BYG3: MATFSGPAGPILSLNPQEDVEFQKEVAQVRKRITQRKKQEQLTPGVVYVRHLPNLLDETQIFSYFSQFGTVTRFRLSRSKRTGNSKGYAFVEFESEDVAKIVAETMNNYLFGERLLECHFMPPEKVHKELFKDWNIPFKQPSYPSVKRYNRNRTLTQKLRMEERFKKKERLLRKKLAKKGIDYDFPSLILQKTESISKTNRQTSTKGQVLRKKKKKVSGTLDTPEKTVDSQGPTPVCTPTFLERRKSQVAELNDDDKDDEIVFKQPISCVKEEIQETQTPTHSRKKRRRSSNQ
UniProt O00567: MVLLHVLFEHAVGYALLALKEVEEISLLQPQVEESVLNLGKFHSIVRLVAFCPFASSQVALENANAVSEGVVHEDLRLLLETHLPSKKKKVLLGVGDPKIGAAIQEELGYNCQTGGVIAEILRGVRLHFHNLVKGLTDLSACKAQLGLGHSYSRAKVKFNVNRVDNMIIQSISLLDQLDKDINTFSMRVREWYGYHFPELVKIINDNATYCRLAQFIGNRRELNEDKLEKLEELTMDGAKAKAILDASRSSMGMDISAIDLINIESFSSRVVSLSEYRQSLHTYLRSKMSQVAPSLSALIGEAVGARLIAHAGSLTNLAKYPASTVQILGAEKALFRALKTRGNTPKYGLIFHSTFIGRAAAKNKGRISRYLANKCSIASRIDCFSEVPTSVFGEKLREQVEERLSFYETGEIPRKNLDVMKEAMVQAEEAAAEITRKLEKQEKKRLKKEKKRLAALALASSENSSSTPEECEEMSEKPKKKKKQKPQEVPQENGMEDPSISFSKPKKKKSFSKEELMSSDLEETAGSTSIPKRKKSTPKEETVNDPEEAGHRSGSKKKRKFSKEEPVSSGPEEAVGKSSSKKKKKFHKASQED
UniProt P03466: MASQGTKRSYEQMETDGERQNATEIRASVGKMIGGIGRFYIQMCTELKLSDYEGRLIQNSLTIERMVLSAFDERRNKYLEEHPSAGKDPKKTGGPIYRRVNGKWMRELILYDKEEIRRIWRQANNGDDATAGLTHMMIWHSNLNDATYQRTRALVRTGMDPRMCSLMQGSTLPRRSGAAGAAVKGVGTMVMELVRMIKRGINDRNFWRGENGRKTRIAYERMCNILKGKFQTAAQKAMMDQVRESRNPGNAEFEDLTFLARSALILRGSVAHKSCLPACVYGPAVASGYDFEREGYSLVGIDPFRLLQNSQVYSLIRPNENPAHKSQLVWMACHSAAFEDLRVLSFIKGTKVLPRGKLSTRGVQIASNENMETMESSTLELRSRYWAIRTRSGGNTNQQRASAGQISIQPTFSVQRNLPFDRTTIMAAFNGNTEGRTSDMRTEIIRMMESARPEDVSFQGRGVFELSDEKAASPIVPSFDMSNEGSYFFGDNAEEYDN
UniProt Q15365: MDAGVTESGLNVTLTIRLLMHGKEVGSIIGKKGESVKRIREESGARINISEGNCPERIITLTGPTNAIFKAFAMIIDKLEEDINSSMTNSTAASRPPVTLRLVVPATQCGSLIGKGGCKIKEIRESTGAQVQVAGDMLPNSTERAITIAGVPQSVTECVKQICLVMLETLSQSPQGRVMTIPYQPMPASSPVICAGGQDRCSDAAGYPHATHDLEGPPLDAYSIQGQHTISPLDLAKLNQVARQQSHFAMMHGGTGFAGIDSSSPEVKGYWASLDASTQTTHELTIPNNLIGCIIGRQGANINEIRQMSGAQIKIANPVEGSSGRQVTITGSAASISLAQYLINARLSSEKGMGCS
UniProt Q7Z2W4: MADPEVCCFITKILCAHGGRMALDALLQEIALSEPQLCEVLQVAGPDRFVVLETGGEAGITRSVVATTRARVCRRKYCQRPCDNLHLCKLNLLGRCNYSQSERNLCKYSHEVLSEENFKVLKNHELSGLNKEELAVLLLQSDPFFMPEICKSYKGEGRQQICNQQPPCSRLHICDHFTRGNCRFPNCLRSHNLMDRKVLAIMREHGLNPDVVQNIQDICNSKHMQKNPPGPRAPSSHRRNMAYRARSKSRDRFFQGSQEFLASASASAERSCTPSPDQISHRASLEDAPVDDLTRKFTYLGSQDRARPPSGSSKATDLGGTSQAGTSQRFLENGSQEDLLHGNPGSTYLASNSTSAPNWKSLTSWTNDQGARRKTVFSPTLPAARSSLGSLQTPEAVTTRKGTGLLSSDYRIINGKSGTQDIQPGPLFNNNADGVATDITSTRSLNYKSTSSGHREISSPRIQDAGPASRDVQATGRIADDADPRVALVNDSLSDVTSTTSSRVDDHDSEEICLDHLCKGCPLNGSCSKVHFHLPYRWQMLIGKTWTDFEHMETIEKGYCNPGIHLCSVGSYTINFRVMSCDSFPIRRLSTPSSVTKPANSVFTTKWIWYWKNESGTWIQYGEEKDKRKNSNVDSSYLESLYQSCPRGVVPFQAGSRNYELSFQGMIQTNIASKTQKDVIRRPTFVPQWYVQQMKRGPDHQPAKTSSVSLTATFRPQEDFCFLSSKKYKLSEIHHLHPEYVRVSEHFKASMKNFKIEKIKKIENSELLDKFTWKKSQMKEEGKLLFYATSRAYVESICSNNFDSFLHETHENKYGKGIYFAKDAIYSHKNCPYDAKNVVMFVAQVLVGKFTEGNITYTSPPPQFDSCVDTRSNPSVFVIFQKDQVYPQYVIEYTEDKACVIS
UniProt Q96KR1: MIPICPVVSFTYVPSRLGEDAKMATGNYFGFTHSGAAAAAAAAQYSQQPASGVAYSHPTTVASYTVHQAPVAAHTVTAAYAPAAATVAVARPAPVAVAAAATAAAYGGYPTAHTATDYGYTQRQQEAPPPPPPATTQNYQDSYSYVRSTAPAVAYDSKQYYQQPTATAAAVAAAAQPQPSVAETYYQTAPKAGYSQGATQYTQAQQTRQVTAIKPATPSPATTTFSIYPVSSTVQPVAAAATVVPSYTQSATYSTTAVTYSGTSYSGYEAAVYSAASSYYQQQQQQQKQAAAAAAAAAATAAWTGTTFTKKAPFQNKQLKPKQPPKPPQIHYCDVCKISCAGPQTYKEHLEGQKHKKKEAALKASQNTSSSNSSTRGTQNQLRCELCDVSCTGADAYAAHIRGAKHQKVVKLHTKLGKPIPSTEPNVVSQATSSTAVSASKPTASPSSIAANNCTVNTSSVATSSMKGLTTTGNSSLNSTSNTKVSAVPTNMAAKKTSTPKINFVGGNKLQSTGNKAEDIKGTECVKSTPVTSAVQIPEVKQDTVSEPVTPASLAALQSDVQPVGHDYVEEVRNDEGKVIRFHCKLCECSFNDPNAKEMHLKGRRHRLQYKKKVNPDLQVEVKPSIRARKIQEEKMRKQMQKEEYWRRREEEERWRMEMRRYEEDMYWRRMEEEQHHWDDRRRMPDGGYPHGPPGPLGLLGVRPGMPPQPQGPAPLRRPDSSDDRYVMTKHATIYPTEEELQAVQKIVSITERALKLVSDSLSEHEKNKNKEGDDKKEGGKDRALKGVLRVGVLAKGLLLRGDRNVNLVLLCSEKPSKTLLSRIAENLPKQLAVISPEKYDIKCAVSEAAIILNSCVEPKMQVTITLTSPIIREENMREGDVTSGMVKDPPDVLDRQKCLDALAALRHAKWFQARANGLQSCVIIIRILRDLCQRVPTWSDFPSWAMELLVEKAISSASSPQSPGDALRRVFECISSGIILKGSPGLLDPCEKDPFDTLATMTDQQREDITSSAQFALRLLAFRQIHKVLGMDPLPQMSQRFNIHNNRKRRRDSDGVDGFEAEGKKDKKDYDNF

Results are given in words; binding and its absence hold for the method and conditions named. Binding seen in cells or lysates may run through a third protein. A yes stands for co-enrichment or nearness to the bait. Other partners may have been found.

The assay deals with Influenza A virus non-structural protein 1 (NS1), strain A/Puerto Rico/8/1934(H1N1) (Influenza A virus A/Puerto Rico/8/1934(H1N1)) (UniProt P03496). The assay can be described thus: affinity purification with mass spectrometry.
With “ATP-dependent RNA helicase DDX3X (from UniProt O00571 1-662)”, the binding entry is “binds”.
In the case of “ATP-dependent RNA helicase DDX54 (from UniProt Q8TDD1 1-881)” it was “binds”; in that of “Centromere protein V (from UniProt Q7Z7K6 1-275)”, “binds”; in that of “Core histone macro-H2A.1 (from UniProt O75367 1-369)”, “binds”.
In the case of “DNA-dependent protein kinase catalytic subunit (from UniProt P78527 1-4128)” it was “binds”.
For the substance “Double-stranded RNA-binding protein Staufen homolog 1 (from UniProt O95793 1-577)”, the binding entry is given as “binds”.
In the case of “E3 ubiquitin/ISG15 ligase TRIM25 (from UniProt Q14258 1-630)” it was “binds”; in that of “ELAV-like protein 1 (from UniProt Q15717 1-326)”, “binds”; in that of “Far upstream element-binding protein 3 (from UniProt Q96I24 1-572)”, “binds”.
Take “Fragile X mental retardation syndrome-related protein 1 (from UniProt P51114 1-621)”: the binding result was “binds”.
In the case of “HEAT repeat-containing protein 1 (from UniProt Q9H583 1-2144)” it was “binds”; in that of “Heat shock 70 kDa protein 1A/1B (from UniProt P0DMV8 1-641)”, “binds”; in that of “Heat shock protein beta-1 (from UniProt P04792 1-205)”, “binds”.
To “Heat shock-related 70 kDa protein 2 (from UniProt P54652 1-639)” belongs “binds”; to “Heterochromatin protein 1-binding protein 3 (from UniProt Q5SSJ5 1-553)”, “binds”; to “Heterogeneous nuclear ribonucleoprotein A/B (from UniProt Q99729 1-332)”, “binds”.
In the case of “Heterogeneous nuclear ribonucleoprotein G (from UniProt P38159 1-391)” it was “binds”; in that of “Heterogeneous nuclear ribonucleoprotein H (from UniProt P31943 1-449)”, “binds”.
Consider “Heterogeneous nuclear ribonucleoprotein Q (from UniProt O60506 1-623)”, for which the binding result is “binds”.
Take “Histone H1.0 (from UniProt P07305 1-194)”: the binding result was “binds”.
For “Histone H1.5 (from UniProt P16401 1-226)”, the binding result is “binds”.
With Histone H1x (from UniProt Q92522 1-213), the binding entry is on record as “binds”.
In the case of “Insulin-like growth factor 2 mRNA-binding protein 3 (from UniProt O00425 1-579)” it was “binds”; in that of “Interleukin enhancer-binding factor 2 (from UniProt Q12905 1-390)”, “binds”; in that of “Isoform D of Protein SON (from UniProt P18583-5 1-2459)”, “binds”.
“Keratin, type II cytoskeletal 6C (from UniProt P48668 1-564)”: the binding entry was “binds”.
To Lamin-A/C (from UniProt P02545 1-646) belongs “binds”.
In the case of “MKI67 FHA domain-interacting nucleolar phosphoprotein (from UniProt Q9BYG3 1-293)”, the binding result is recorded as “binds”.
To “Nuclear mitotic apparatus protein 1 (from UniProt Q14980 1-2115)” belongs “binds”; to “Nucleolar GTP-binding protein 2 (from UniProt Q13823 1-731)”, “binds”; to “Nucleolar RNA helicase 2 (from UniProt Q9NR30 1-783)”, “binds”.
To “Nucleolar protein 56 (from UniProt O00567 1-594)” belongs “binds”; to “PR8 nucleoprotein (NP) (from UniProt P03466 1-498)”, “binds”.
“PR8 viral matrix protein 1 (M1) (from UniProt P03485 1-252)”: the binding entry is “binds”.
To “Poly(rC)-binding protein 1 (from UniProt Q15365 1-356)” belongs “binds”.
In the case of “Polypyrimidine tract-binding protein 1 (from UniProt P26599 1-557)” it was “binds”; in that of “Probable ATP-dependent RNA helicase DDX5 (from UniProt P17844 1-614)”, “binds”; in that of “Probable ATP-dependent RNA helicase DDX10 (from UniProt Q13206 1-875)”, “binds”.
With “Probable ATP-dependent RNA helicase DDX17 (from UniProt Q92841 1-729)”, the binding entry is given as “binds”.
To “Protein MAK16 homolog (from UniProt Q9BXY0 1-300)” belongs “binds”.
For the substance “Protein RRP5 homolog (from UniProt Q14690 1-1871)”, the binding result was “binds”.
Take “Protein S100-A10 (from UniProt P60903 1-97)”: the binding result was “binds”.
In the case of “Putative heat shock protein HSP 90-beta 2 (from UniProt Q58FF8 1-381)” it was “binds”; in that of “Putative pre-mRNA-splicing factor ATP-dependent RNA helicase DHX15 (from UniProt O43143 1-795)”, “binds”; in that of “RNA-binding protein FUS (from UniProt P35637 1-526)”, “binds”.
In the case of “RNA-binding protein Raly (from UniProt Q9UKM9 1-306)” it was “binds”.
Turning to “Regulator of differentiation 1 (from UniProt O95758 1-552)”, the binding result is “binds”.
To “Ribosome biogenesis protein BMS1 homolog (from UniProt Q14692 1-1282)” belongs “binds”; to “Ribosome biogenesis protein BOP1 (from UniProt Q14137 1-746)”, “binds”; to “SAFB-like transcription modulator (from UniProt Q9NWH9 1-1034)”, “binds”.
On to “SWI/SNF-related matrix-associated actin-dependent regulator of chromatin subfamily A member 5 (from UniProt O60264 1-1052)”, for which the binding entry is listed as “binds”.
To “Sequestosome-1 (from UniProt Q13501 1-440)” belongs “binds”; to “Serine/threonine-protein kinase PRP4 homolog (from UniProt Q13523 1-1007)”, “binds”.
In the case of “TAR DNA-binding protein 43 (from UniProt Q13148 1-414)” it was “binds”; in that of “U5 small nuclear ribonucleoprotein 200 kDa helicase (from UniProt O75643 1-2136)”, “binds”; in that of “Voltage-dependent anion-selective channel protein 1 (from UniProt P21796 1-283)”, “binds”.
In the case of “Zinc finger CCCH-type antiviral protein 1 (from UniProt Q7Z2W4 1-902)” it was “binds”; in that of “Zinc finger RNA-binding protein (from UniProt Q96KR1 1-1074)”, “binds”.
